Measured values taken from paper PMC12815461 (2026).
These are yes or no findings as the source states them, for the method shown. Binding seen in cells or lysates may run through a third protein.

The chains behind the UniProt entries cited, without tags or fusion partners. Where a name states a change or a piece, a line headed by the entry shows the natural chain unless it says otherwise.
UniProt Q12888: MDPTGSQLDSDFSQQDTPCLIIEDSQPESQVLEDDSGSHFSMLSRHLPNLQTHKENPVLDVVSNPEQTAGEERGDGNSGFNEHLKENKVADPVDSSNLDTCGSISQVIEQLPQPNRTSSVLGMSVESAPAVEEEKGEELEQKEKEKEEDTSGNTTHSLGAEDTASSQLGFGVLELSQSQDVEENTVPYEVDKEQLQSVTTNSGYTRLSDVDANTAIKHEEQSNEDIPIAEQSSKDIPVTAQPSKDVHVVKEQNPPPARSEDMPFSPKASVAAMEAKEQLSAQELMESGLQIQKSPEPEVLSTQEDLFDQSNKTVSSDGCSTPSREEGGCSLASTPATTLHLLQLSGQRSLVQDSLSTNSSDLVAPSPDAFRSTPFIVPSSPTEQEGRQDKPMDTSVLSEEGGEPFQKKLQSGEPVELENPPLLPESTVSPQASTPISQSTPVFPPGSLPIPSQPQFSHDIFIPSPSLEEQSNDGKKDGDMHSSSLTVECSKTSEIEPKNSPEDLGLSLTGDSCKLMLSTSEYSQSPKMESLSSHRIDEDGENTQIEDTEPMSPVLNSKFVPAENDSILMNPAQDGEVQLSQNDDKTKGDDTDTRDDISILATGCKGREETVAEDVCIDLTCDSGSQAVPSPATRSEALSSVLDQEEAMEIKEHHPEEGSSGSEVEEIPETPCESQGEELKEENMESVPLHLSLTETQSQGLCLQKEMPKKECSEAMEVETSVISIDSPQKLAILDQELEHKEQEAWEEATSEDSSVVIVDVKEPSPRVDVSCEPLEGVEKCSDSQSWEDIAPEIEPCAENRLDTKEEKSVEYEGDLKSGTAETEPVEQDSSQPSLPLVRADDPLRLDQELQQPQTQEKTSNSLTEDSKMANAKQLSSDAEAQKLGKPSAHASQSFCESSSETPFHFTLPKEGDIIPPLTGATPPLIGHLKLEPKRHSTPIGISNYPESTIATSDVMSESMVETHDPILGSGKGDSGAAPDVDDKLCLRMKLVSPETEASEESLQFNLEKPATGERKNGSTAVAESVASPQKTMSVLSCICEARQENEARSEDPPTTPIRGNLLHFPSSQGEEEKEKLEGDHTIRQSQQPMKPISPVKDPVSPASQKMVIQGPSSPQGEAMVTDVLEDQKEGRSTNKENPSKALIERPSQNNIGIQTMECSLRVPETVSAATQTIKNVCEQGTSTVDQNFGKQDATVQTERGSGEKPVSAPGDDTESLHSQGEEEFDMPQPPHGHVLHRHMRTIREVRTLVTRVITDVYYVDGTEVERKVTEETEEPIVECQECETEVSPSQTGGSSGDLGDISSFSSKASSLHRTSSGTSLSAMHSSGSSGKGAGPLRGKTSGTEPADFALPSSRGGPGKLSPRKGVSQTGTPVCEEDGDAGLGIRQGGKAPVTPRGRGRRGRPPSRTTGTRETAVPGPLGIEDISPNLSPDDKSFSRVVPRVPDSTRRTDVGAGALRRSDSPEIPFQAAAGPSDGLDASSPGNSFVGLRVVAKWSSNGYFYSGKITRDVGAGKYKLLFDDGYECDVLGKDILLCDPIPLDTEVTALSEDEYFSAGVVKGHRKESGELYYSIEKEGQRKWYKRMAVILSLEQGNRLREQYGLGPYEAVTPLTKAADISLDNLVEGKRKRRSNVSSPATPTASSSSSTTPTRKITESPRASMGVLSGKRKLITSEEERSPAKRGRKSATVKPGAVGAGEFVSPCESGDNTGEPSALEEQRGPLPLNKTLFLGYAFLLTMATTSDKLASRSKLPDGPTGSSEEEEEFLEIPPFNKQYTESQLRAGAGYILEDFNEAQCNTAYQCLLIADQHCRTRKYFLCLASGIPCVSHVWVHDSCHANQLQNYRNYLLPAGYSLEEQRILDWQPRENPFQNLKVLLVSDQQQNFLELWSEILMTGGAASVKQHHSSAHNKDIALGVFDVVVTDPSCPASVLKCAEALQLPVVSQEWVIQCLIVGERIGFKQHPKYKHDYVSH

Target: FLAG-53BP1 ΔMFF (human) (UniProt Q12888)
Test: co-IP; FLAG-53BP1 WT, ΔMFF or IEDI_AAAA transfected into HEK293T, MLN4924 for 3 hr; 53BP1 immunoprecipitated (FLAG) and immunoblotted

- binding: no binding
B1: GMCL1, endogenous in HEK293T (as part of CRL3^GMCL1) (protein, UniProt Q96IK5 1-515)
chain: MGSLSSRVLRQPRPALAQQAQGARAGGSARRPDTGDDAAGHGFCYCAGSHKRKRSSGSFCYCHPDSETDEDEEEGDEQQRLLNTPRRKKLKSTSKYIYQTLFLNGENSDIKICALGEEWSLHKIYLCQSGYFSSMFSGSWKESSMNIIELEIPDQNIDVEALQVAFGSLYRDDVLIKPSRVVAILAAACLLQLDGLIQQCGETMKETVNVKTVCGYYTSAGTYGLDSVKKKCLEWLLNNLMTHQNVELFKELSINVMKQLIGSSNLFVMQVEMDIYTALKKWMFLQLVPSWNGSLKQLLTETDVWFSKQRKDFEGMAFLETEQGKPFVSVFRHLRLQYIISDLASARIIEQDAVVPSEWLSSVYKQQWFAMLRAEQDSEVGPQEINKEELEGNSMRCGRKLAKDGEYCWRWTGFNFGFDLLVTYTNRYIIFKRNTLNQPCSGSVSLQPRRSIAFRLRLASFDSSGKLICSRTTGYQILTLEKDQEQVVMNLDSRLLIFPLYICCNFLYISPEKKN
